Data: PMC9495756
Results are given in words; binding and its absence hold for the method and conditions named. In cells and extracts the contact can be indirect.

Molecular target: hypoxia-inducible factor-1α (human (endogenous in HK-2)), Q16665
Assay: co-IP; HK-2 cell extracts after 16 h in nutrient-replete or nutrient-deficient conditions with or without 200 μM CoCl2; HIF-1α immunoprecipitated overnight at 4 °C, Protein G Sepharose, one wash with HEPES-buffered saline (150 mM NaCl; 10 mM HEPES, pH 7.4); immunoblots for NRF2 and HIF-1α
Conditions: remark: other sources report otherwise

binding: no binding
B1: nuclear factor erythroid-2-related factor 2, Q16236 1-605 (protein)
chain: MMDLELPPPGLPSQQDMDLIDILWRQDIDLGVSREVFDFSQRRKEYELEKQKKLEKERQEQLQKEQEKAFFAQLQLDEETGEFLPIQPAQHIQSETSGSANYSQVAHIPKSDALYFDDCMQLLAQTFPFVDDNEVSSATFQSLVPDIPGHIESPVFIATNQAQSPETSVAQVAPVDLDGMQQDIEQVWEELLSIPELQCLNIENDKLVETTMVPSPEAKLTEVDNYHFYSSIPSMEKEVGNCSPHFLNAFEDSFSSILSTEDPNQLTVNSLNSDATVNTDFGDEFYSAFIAEPSISNSMPSPATLSHSLSELLNGPIDVSDLSLCKAFNQNHPESTAEFNDSDSGISLNTSPSVASPEHSVESSSYGDTLLGLSDSEVEELDSAPGSVKQNGPKTPVHSSGDMVQPLSPSQGQSTHVHDAQCENTPEKELPVSPGHRKTPFTKDKHSSRLEAHLTRDELRAKALHIPFPVEKIINLPVVDFNEMMSKEQFNEAQLALIRDIRRRGKNKVAAQNCRKRKLENIVELEQDLDHLKDEKEKLLKEKGENDKSLHLLKKQLSTLYLEVFSMLRDEDGKPYSPSEYSLQQTRDGNVFLVPKSKKPDVKKN
